Test results reported in article PMC12594857.
These are yes or no findings as the source states them, for the method shown. For part of these data: Binding seen in cells or lysates may run through a third protein. Some entries that bind do so weakly or less than the wild type. For part of these data: Sequences can lack the tags named with a protein. Values belong to the molecule of their own block, whether it stands above or below them.

Amino acid sequences for entries named in this document (tags omitted).
UniProt O95347: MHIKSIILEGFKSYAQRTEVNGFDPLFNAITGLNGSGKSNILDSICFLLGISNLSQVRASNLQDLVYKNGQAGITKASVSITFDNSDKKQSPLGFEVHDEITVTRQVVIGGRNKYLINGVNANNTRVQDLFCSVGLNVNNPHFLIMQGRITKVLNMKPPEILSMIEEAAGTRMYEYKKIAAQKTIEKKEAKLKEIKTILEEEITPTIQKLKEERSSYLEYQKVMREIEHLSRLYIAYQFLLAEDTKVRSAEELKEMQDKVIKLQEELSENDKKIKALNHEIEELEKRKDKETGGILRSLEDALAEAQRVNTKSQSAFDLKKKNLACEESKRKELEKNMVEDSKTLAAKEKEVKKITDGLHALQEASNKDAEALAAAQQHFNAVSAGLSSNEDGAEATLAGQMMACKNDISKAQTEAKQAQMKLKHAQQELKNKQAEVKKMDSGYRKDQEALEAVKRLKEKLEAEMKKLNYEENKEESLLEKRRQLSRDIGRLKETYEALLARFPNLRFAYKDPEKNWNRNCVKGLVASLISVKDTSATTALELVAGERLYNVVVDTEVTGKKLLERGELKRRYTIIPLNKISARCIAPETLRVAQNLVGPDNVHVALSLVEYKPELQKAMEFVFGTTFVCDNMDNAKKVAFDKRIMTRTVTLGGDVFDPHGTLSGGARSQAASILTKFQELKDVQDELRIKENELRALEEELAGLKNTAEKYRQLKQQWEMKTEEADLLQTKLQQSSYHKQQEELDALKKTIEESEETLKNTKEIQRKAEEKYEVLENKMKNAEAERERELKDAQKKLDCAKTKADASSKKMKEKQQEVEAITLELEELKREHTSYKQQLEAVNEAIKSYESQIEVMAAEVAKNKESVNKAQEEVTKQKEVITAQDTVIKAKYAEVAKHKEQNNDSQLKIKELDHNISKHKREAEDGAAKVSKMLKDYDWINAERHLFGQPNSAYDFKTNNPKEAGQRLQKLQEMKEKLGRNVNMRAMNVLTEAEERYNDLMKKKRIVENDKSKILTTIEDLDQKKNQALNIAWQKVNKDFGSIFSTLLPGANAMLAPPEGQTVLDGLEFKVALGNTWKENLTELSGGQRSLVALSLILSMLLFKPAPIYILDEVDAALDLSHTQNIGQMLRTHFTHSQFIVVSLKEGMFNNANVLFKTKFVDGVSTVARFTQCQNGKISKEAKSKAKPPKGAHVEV
UniProt Q96GD4: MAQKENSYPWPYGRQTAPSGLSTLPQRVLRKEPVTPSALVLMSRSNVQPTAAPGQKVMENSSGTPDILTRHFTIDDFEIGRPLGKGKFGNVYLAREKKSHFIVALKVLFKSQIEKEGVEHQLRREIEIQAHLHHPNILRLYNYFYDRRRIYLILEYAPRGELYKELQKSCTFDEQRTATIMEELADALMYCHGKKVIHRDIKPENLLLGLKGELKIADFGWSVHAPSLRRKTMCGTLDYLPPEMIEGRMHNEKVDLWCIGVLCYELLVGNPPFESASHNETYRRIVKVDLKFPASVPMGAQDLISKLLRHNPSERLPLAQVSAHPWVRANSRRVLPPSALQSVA

What was measured:
[1] = target: SMC2, endogenous (human (endogenous in HeLa)) (UniProt O95347); test: co-IP; immunoprecipitation in mitotic cells, with or without pre-rRNAs (Fig. S8A)
[2] = target: T1, Aurora Kinase A (AURKA), endogenous (human (endogenous in HeLa)) (UniProt O14965); test: co-IP; endogenous proteins; chromosome-binding proteins of HeLa cells synchronized at M phase by thymidine double blocking and shake-off, treated with Pol I inhibitors or DMSO (Fig. 3C, Fig. 6B)
T1 sequence: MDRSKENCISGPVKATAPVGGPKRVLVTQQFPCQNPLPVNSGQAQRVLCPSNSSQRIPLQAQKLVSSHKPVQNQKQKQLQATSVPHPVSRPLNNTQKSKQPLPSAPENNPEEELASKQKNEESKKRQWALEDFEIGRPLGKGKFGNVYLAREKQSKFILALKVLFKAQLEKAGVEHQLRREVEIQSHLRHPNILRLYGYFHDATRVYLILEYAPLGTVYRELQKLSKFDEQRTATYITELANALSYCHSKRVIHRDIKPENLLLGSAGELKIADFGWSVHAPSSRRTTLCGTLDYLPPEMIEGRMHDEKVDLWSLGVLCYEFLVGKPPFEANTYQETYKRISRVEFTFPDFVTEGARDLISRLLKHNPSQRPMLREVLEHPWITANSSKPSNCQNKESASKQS

[3] = target: GST-SMC2 (UniProt O95347); test: pull-down; GST fusion proteins bound to Glutathione Sepharose 4B incubated with purified His-tagged protein; 100 mM NaCl, 2 mM EDTA, 20 mM Tris-HCl pH 7.5, 2 mM DTT, 5% glycerol, 1% NP-40; immunoblot; both purified

binding [1]: no binding
Molecule: AURKB, endogenous (from UniProt Q96GD4 1-344) (enzyme)

binding [2]: binds
Molecule: SMC2, endogenous (from UniProt O95347 1-1197)

binding [3]: binds
B1: His-AURKA (enzyme, UniProt O14965 1-403)
chain: T1 sequence
